Experimental data taken from PubChem BioAssay AID2685 (National Center for Advancing Translational Sciences (NCATS), 2010).
Out of some 320,000 compounds screened, about 2,100 (0.66%) were called active. This list was built around the results that the source calls inconclusive (neither active nor inactive); the mix of calls is not that of the screen. Calls come from the whole dose curve; as a rule, active = well fitted inhibition curve with a large enough effect in the signal ratio, with a control signal flat (not every such curve was filed as active); inconclusive = small, poorly fitted or top-dose-only effect, or effect the other way, or a change in a side signal; inactive = flat fitted curve, though single readings scatter; the % refers to the signal ratio. Potencies of inconclusive entries are doubtful fits and often do not repeat.

assay: qHTS Assay for Lipid Storage Modulators in Drosophila S3 Cells; conditions: BODIPY lipid droplet fluorescence, 18-24 h, cells fed with added oleic acid; lipid storage change, negative = inhibition: at 46.1 µM (top of the series) unless noted
In short: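 Laser-scanning cytometry quantifies lipid droplet accumulation (500–530 nm total intensity; droplet/cell object ratio) in oleic acid-fed (400 uM added) Drosophila S3 cells treated with a concentration series. 20 uM Triacsin C defined 100% inhibition.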
% is set by controls: 0 for no effect and ±100 for the full control effect; potency is the fitted concentration of half-maximal effect.

SMILES	lipid storage change, negative = inhibition	Potency
C=CCOc1ccc(-c2n[nH]c(=S)o2)cc1	inconclusive: 31%	–
COc1ccc(NC(=O)CSc2nnc(NC(=O)c3ccco3)s2)cc1OC	inconclusive: 14.6%	–
O=C(Nc1nnc(-c2ccc(Cl)cc2)o1)c1ccccc1Br	inconclusive: 83.7%	–
O=C(Cn1c(SCC(=O)NC2CCCC2)nnc1-c1ccncc1)Nc1ccc2c(c1)OCO2	inconclusive: 9.03%	–
CCOC(=O)c1sc(NC(=O)Cc2ccccc2OC)nc1C	inconclusive: 51.1%	–
O=C(N/N=C/c1ccc(N2CCOCC2)cc1)c1ccccc1NS(=O)(=O)c1cccs1	inconclusive: -28.2%	–
O=C(c1ccc([N+](=O)[O-])cc1)N1CCCC1	inconclusive: -24.1%	–
Cc1c(NC(=S)NC(=O)CSc2ccc(Cl)cc2)cccc1C(=O)O	–	inconclusive: 18.4 µM [activator, single point]
O=C(Cc1cccc2ccccc12)N1CCN(c2ncccn2)CC1	inconclusive: 26.4%	–
COc1ccc(CCNC(=O)COC(=O)c2sc(C)nc2C)cc1	inactive	–
COc1cc(N2CCCC2)c(OC)cc1/C=C(/C#N)c1ccc(Br)cc1	inconclusive: -58%	–
Cc1ccc(NC(=O)C2(NC(=O)c3cccc(N4C(=O)CSC4c4ccccc4)c3)CCCCC2)cc1 (stereo unspecified)	–	inconclusive: 0.58 µM [activator, partial curve, poor fit]
CCC1Oc2ccccc2N(CC(=O)Nc2ccc(OC)cc2OC)C1=O (stereo unspecified)	–	inconclusive: 0.164 µM [activator, full curve, poor fit]
COC(=O)c1ccc(NS(=O)(=O)NC(=O)c2c[nH]c3ccccc23)cc1	inconclusive: 19.5%	–
Cn1c(=O)c2c(nc(CN3CCN(C(=O)c4ccco4)CC3)n2CC(=O)C(C)(C)C)n(C)c1=O	–	inconclusive: 29.1 µM [falling, single point]
CNc1ccc(Br)cc(C(=O)/C=C/c2ccc(OC)cc2OC)c1=O	–	inconclusive: 29.1 µM [falling, single point]
CC(=O)Nc1ccc(OS(=O)(=O)c2ccccc2C)cc1	inconclusive: -13.8%	–
Cc1ccc(-c2nnn(CC(=O)N(CCO)C(C(=O)NC3CCCCC3)c3ccncc3)n2)o1 (stereo unspecified)	inconclusive: -14.5%	–
CCNc1ccc(S(=O)(=O)N(C)C)cc1[N+](=O)[O-]	inconclusive: -25.5%	–
CC(=O)c1sc(NC(=O)CS(=O)(=O)c2ccc(F)cc2)nc1C	inconclusive	–
O=c1nc2n(c3sc4c(c13)CCCC4)C(CBr)CS2 (stereo unspecified)	–	inconclusive: 1.84 µM [activator, full curve]
CCOc1ccccc1C(=O)NCC(=O)NCC(c1ccc(OC)cc1)N1CCOCC1 (stereo unspecified)	–	inconclusive: 0.0046 µM [falling, full curve, poor fit]
O=C(OCn1nnc2ccccc2c1=O)c1ccc2ccccc2n1	inconclusive: -57.3%	–
COc1ccc(CNC(=O)COC(=O)CN2C(=O)NC3(CCCC3)C2=O)cc1	–	inconclusive: 2.91 µM [activator, partial curve]
Cc1cc(Cl)ccc1NC(=S)NCC(C)C	inactive	–
CC(=O)OCCN(CCOC(C)=O)c1c(C)[nH]c(=O)[nH]c1=O	inconclusive: -1.25%	–

SMILES	lipid storage change, negative = inhibition	Potency
Cc1ccc(C2=NS(=O)(=O)N(C)C(C(=O)NC(C)c3ccccc3)=C2)cc1 (stereo unspecified)	–	inconclusive: 0.13 µM [falling, full curve, poor fit]
O=C(Nc1ccncc1)C1CCN(S(=O)(=O)c2ccc(Cl)cc2)CC1	–	inconclusive: 3.26 µM [activator, partial curve]
Cc1cc(SCC(=O)NCC(c2cccs2)N2CCOCC2)c(C)cc1Br (stereo unspecified)	inconclusive: 31.9%	–
O=C(CN1CCN(C(=O)c2ccccc2)CC1)Nc1cccc(S(=O)(=O)N2CCCC2)c1	inconclusive	–
COc1ccc(OC)c(C2CC(=O)N3CN(c4cccc(Cl)c4C)CSC3=C2C#N)c1 (stereo unspecified)	inconclusive: 34.8%	–
N#C/C(=C\c1cccc([N+](=O)[O-])c1)c1ccccn1	inconclusive: -2.38%	–
O=C(NCc1cccnc1)C(=O)Nc1nccs1	inconclusive: 42.3%	–
O=C(Nc1cccc(C(F)(F)F)c1)C1CC(=O)N(CCc2ccccc2)C1 (stereo unspecified)	–	inconclusive: 0.0046 µM [rising, full curve, poor fit]
CC(C)(C)c1ccc(/C=N/NC(=O)Cc2c[nH]c3ccccc23)cc1	–	inconclusive: 29.1 µM [falling, single point]
C=CCNC(=S)NNC(=O)c1cc(-c2cccnc2)nc2ccccc12	inconclusive: 27.4%	–
Cc1cccc(/N=C/c2c(O)n(Cc3ccc4c(c3)OCO4)c(=O)c3ccccc23)n1	–	inconclusive: 4.61 µM [rising, single point]
CC(=O)C1=C(C)NC(=O)NC1c1cc(Br)ccc1OCC(N)=O (stereo unspecified)	inconclusive: 39.3%	–
COC(=O)c1ccc(C2c3[nH]c4ccccc4c3C[C@H]3C(=O)N(C4CCN(Cc5ccccc5)CC4)CC(=O)N23)cc1 (stereo partly specified)	inconclusive: -3.08%	–
O=C(c1oc(=O)c2ccccc2c1-c1ccccc1)N1CCC(O)CC1	inconclusive: 52.6%	–
Cc1ccc(Cl)c(OCC(=O)N(C)CC(=O)Nc2ccc(N3CCOCC3)cc2)c1	inconclusive: 34%	–
Cc1cccc(C)c1OCc1cc(C(=O)NCc2ccc(Cl)s2)no1	inconclusive: -4.2%	–
Cc1ccc(S(=O)(=O)NC(CC(C)C)C(=O)N2CC(C)OC(C)C2)cc1 (stereo unspecified)	inconclusive: 65.7%	–
Cc1ccc(C)c(SCC(=O)OCC(=O)N2CC(C)OC(C)C2)c1 (stereo unspecified)	–	inconclusive: 0.0041 µM [falling, full curve, poor fit]
CCc1ccc(OCC(O)Cn2c(N3CCCCC3)nc3c2c(=O)[nH]c(=O)n3C)cc1 (stereo unspecified)	–	inconclusive: 6.51 µM [activator, partial curve, poor fit]
CCc1cc(=O)oc2cc(OC3CCCCC3=O)ccc12 (stereo unspecified)	inconclusive: -25.2%	–
COc1ccc(C(=O)c2sc(Nc3ccccc3)nc2C)cc1	inconclusive: 10.3%	–
CC(C)(C)C(=O)[C@@H]1[C@@H]2C(=O)N(C3CCCCC3)C(=O)[C@@H]2[C@H]2c3ccccc3C=CN12	–	inconclusive: 0.092 µM [falling, full curve, poor fit]
Cc1sc2nc(SCC(=O)NCc3ccco3)n(-c3ccccc3)c(=O)c2c1C	inconclusive: 17.1%	–
O=C(COc1ccc(Cl)cc1)N1CCN(Cc2ccc3c(c2)OCO3)CC1	inconclusive: 37.2%	–
COc1ccc(OC)c(NC(=O)CSc2nnc(-c3ccco3)n2-c2ccc(C(=O)O)cc2)c1	inconclusive: 37.8%	–
Cc1nn2c(NCC(C)C)c3c(nc2c1-c1ccccc1)CCC3	–	inconclusive: 6.51 µM [falling, single point]

3 compounds from above, arranged by SMILES length, rising:
SMILES	lipid storage change, negative = inhibition	Potency
O=C(NCc1cccnc1)C(=O)Nc1nccs1	inconclusive: 42.3%	–
Cc1nn2c(NCC(C)C)c3c(nc2c1-c1ccccc1)CCC3	–	inconclusive: 6.51 µM [falling, single point]
CC(C)(C)C(=O)[C@@H]1[C@@H]2C(=O)N(C3CCCCC3)C(=O)[C@@H]2[C@H]2c3ccccc3C=CN12	–	inconclusive: 0.092 µM [falling, full curve, poor fit]

One compound at a time, as listed above:
CCOC(=O)c1sc(NC(=O)Cc2ccccc2OC)nc1C as listed: lipid storage change, negative = inhibition: inconclusive: 51.1%
COc1ccc(OC)c(NC(=O)CSc2nnc(-c3ccco3)n2-c2ccc(C(=O)O)cc2)c1 as listed: lipid storage change, negative = inhibition: inconclusive: 37.8%

Next part

SMILES	lipid storage change, negative = inhibition	Potency
CCC(c1ccccc1)c1nc(-c2cccnc2)no1 (stereo unspecified)	–	inconclusive: 5.17 µM [activator, partial curve]
Cn1c(=O)c2c(c3ccccc31)OC(=O)CC2c1cccnc1 (stereo unspecified)	inconclusive: -5.94%	–
COc1nc2ccccc2nc1CCC(=O)O	inactive	–
COc1ccc(S(=O)(=O)N2CCN(Cc3cccc(OC)c3OC)CC2)cc1	–	inconclusive: 2.91 µM [activator, partial curve]
CCOc1ccccc1-c1nc(-c2cccc(Br)c2)no1	–	inconclusive: 0.326 µM [activator, full curve]
COCC(=O)Nc1ccccc1NC(C)=O	inconclusive: -29.9%	–
CN=C1S/C(=C\c2ccc(SC)cc2)C(=O)N1C	–	active: 0.13 µM
CCN(c1cccc(C(F)(F)F)c1)S(=O)(=O)c1ccc2c(c1)CCN2C(=O)C1CC1	inconclusive: 33.1%	–
O=C(O)c1cc([N+](=O)[O-])cc([N+](=O)[O-])c1N1CCN(c2cccc(C(F)(F)F)c2)CC1	–	inconclusive: 4.61 µM [activator, single point]
O=C(CC1C(=O)NCCN1C/C=C/c1ccccc1)NCCc1ccncc1 (stereo unspecified)	inconclusive: -26.4%	–
Cc1ccc(S(=O)(=O)NNC(=O)c2cccs2)c(C)c1	inconclusive: -138%	–
CC(C)NC(=O)CSc1nc(N)c(NC(=O)c2ccco2)c(=O)[nH]1	inconclusive: 9.2%	–
O=C(Nc1cccc(NC(=O)c2ccc([N+](=O)[O-])o2)c1)c1ccco1	–	active: 5.8 µM
CCCCN(C)CCCN1C(=O)C2C(C(=O)Nc3cccc(OC)c3)C3C=CC2(O3)C1C(=O)NC1CCCCC1C (stereo unspecified)	inconclusive: 3.85%	–
CCCCNC(=O)c1cn(-c2ccc(OCC)cc2)c(=O)c2cc(OC)c(OC)cc12	–	inconclusive: 2.91 µM [activator, partial curve]
NC(=S)N/N=C/c1cc([N+](=O)[O-])ccc1Cl	inconclusive: -25%	–
Cc1ccc2nc(NC(=O)C3CCN(S(=O)(=O)c4cccc5nsnc45)CC3)sc2c1	inconclusive: -11.1%	–
CC(CN1CCCCC1)c1ccccc1 (stereo unspecified)	inconclusive: -25.5%	–
O=C(O)CCc1ccc(S(=O)(=O)N2CCOCC2)cc1	–	inconclusive: 18.4 µM [falling, single point]
Cc1nc2sc3c(c2c(=N)n1N)CCCC3	inconclusive: -16.7% [at 9.22 µM]	–
COc1ccc(NC(=O)Nc2ccc(Br)c(C)c2)cc1	inconclusive: -43.3% [at 0.00295 µM]	–
O=C(NCc1n[nH]c(=S)n1-c1cccc(Cl)c1)c1ccc(S(=O)(=O)N2CCCCC2)cc1	–	inconclusive: 18.4 µM [falling, single point]
COCC(C)NCc1cc(Br)ccc1OC (stereo unspecified)	inconclusive: 11.5%	–
Cc1ccsc1C(=O)N1CCN(c2ccccn2)CC1	inconclusive: -3.92%	–
